Literature values in US20140066469A1, “TREATMENT OF DISEASES ASSOCIATED WITH INFLAMMATION” (Department of Veterans Affairs, priority 2012, published 2014).
For part of these data: At least one read-out could not be matched to a standard name with certainty. Some results were stated once for a whole list of compounds, not compound by compound.

How the values were obtained:
[1] = standard dose of 400 mg/day; cited from earlier work
[2] = coadministration with hydroxychloroquine; cited from earlier work

Row | SMILES | time to achieve therapeutic tissue levels [1] | time to reach Cmax, tmax [2]
1 | CCN(CCO)CCCC(C)Nc1ccnc2cc(Cl)ccc12 (stereo not drawn) [HCQ, hydroxychloroquine] | 4-6 months | 
2 | CCN(CC)CCCC(C)Nc1ccnc2cc(Cl)ccc12 (stereo not drawn) [chloroquine] | 4-6 months | 
3 | CN(Cc1cnc2nc(N)nc(N)c2n1)c1ccc(C(=O)N[C@@H](CCC(=O)O)C(=O)O)cc1 [methotrexate] |  | increased
